# Laboratory results taken from the supplement of paper PMC4635364.
# Counter-ions that a name gives are not always drawn. The list shows a part of the results. Single values are uncertain here, since repeats match poorly.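 ReNCell VM, a human fetal ventral-midbrain neural progenitor line, was differentiated without mitogens. Blinded raters scored images stained for doublecortin (early neurons) or tyrosine hydroxylase (dopaminergic neurons) against untreated wells (0 = no change). Scores were averaged across repeats and both raters, and compounds averaging 2 or more were selected as hits for retesting.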
# Experiments:
# ReNCell VM [1] = experiment: neuronal differentiation score (DCX+ cell fraction vs untreated, manual image score) (score (-3 to 3)); higher = more neuronal differentiation; conditions: 2 uM, 2 weeks
# ReNCell VM [2] = experiment: dopaminergic neuron differentiation score (TH+ cell fraction vs untreated, manual image score) (score (0 to 3)); higher = more TH+ dopaminergic neuron differentiation; conditions: 2 uM, 4 weeks, BDNF 10 ng/ml + GDNF 10 ng/ml
structure (smiles),measurement,setting,value
C[N+]1(C)[C@@H]2CC[C@H]1C[C@@H](OC(=O)C(CO)c1ccccc1)C2 (stereo partly specified),neuronal differentiation score,ReNCell VM [1]; library: Spectrum,inactive: 0
same,dopaminergic neuron differentiation score,ReNCell VM [2]; library: Spectrum,inactive: 0
CO[C@H](C)[C@](O)(C(=O)OCC1=CCN2CC[C@H](O)[C@@H]12)C(C)C [Heliotrine],neuronal differentiation score,ReNCell VM [1]; library: Phytochemical,inactive: 0
same,dopaminergic neuron differentiation score,ReNCell VM [2]; library: Phytochemical,inactive: 0
C[C@]12C=CC(=O)C=C1CC[C@@H]1[C@@H]2CC[C@]2(C)C(=O)CC[C@@H]12,neuronal differentiation score,ReNCell VM [1]; library: Spectrum,inactive: 0
same,dopaminergic neuron differentiation score,ReNCell VM [2]; library: Spectrum,inactive: 0
COc1c2c(cc3c1OCO3)CC[N+](C)=C2,neuronal differentiation score,ReNCell VM [1]; library: Spectrum,inactive: 0
same,dopaminergic neuron differentiation score,ReNCell VM [2]; library: Spectrum,inactive: 0
NNC(N)=O [Semicarbazide hydrochloride],neuronal differentiation score,ReNCell VM [1]; library: LOPAC,inactive: 0
same,dopaminergic neuron differentiation score,ReNCell VM [2]; library: LOPAC,inactive: 0
C[C@]12CC[C@H](O)CC1=CC[C@@H]1[C@@H]2CC[C@]2(C)C(=O)CC[C@@H]12,neuronal differentiation score,ReNCell VM [1]; library: Spectrum,inactive: 0
same,dopaminergic neuron differentiation score,ReNCell VM [2]; library: Spectrum,inactive: 0
CC(C)n1cnc2c(C(=O)N[C@H]3CN4CCC3CC4)cc(Cl)cc21,neuronal differentiation score,ReNCell VM [1]; library: Tocriscreen,inactive: 0
same,dopaminergic neuron differentiation score,ReNCell VM [2]; library: Tocriscreen,inactive: 0
CCCCCC[C@H]1C(=O)O[C@H](C)[C@H](NC(=O)c2cccc(NC=O)c2O)C(=O)O[C@@H](C)[C@@H]1OC(=O)CC(C)C [Antimycin A],neuronal differentiation score,ReNCell VM [1]; library: Prestwick,inactive: 0
same,dopaminergic neuron differentiation score,ReNCell VM [2]; library: Prestwick,inactive: 0
O=C1C[C@@H]2OCC=C3CN4CC[C@]56c7ccccc7N1[C@H]5[C@H]2[C@H]3C[C@H]46,neuronal differentiation score,ReNCell VM [1]; library: Spectrum,inactive: 1
same,dopaminergic neuron differentiation score,ReNCell VM [2]; library: Spectrum,inactive: 1
N[C@@H](Cn1ccc(=O)[nH]c1=O)C(=O)O [S(-)-Willardiine],neuronal differentiation score,ReNCell VM [1]; library: LOPAC,inactive: 0
same,dopaminergic neuron differentiation score,ReNCell VM [2]; library: LOPAC,inactive: 0
CC1CC(Cl)CCC1C(=O)OC(C)(C)C (stereo unspecified),neuronal differentiation score,ReNCell VM [1]; library: Spectrum,inactive: 0
same,dopaminergic neuron differentiation score,ReNCell VM [2]; library: Spectrum,inactive: 0
C1CCc2nnnn2CC1,neuronal differentiation score,ReNCell VM [1]; library: Spectrum,inactive: 0
same,dopaminergic neuron differentiation score,ReNCell VM [2]; library: Spectrum,inactive: 0
O=C([O-])c1ccccc1-c1c2cc(Br)c(=O)cc-2oc2[c]([Hg+])c([O-])c(Br)cc12.[Na+].[Na+].[OH-] [Merbromin],neuronal differentiation score,ReNCell VM [1]; library: Prestwick,inactive: -1
same,dopaminergic neuron differentiation score,ReNCell VM [2]; library: Prestwick,inactive: 0
CN(C)CCc1ccc(O)cc1 [Hordenine],neuronal differentiation score,ReNCell VM [1]; library: Phytochemical,inactive: 0
same,dopaminergic neuron differentiation score,ReNCell VM [2]; library: Phytochemical,inactive: 0
NCCc1ccc(O)cc1,neuronal differentiation score,ReNCell VM [1]; library: Spectrum,inactive: 0
same,dopaminergic neuron differentiation score,ReNCell VM [2]; library: Spectrum,inactive: 0
CC(CCc1ccccc1)NC(C)C(O)c1ccc(O)cc1 (stereo unspecified) [Nylidrin hydrochloride],neuronal differentiation score,ReNCell VM [1]; library: LOPAC,inactive: 0
same,dopaminergic neuron differentiation score,ReNCell VM [2]; library: LOPAC,inactive: 0
CN(C)Cc1c[nH]c2ccccc12,neuronal differentiation score,ReNCell VM [1]; library: Spectrum,inactive: 0
same,dopaminergic neuron differentiation score,ReNCell VM [2]; library: Spectrum,inactive: 0
O=C(O)CC[N+](=O)[O-] [3-Nitropropionic acid],neuronal differentiation score,ReNCell VM [1]; library: LOPAC,inactive: 0
same,dopaminergic neuron differentiation score,ReNCell VM [2]; library: LOPAC,inactive: 0
O=c1cccc2n1C[C@@H]1CNC[C@H]2C1,neuronal differentiation score,ReNCell VM [1]; library: Spectrum,inactive: 0
same,dopaminergic neuron differentiation score,ReNCell VM [2]; library: Spectrum,inactive: 0
Cc1nc(N)sc1CCN [Amthamine dihydrobromide],neuronal differentiation score,ReNCell VM [1]; library: Tocriscreen,inactive: 0
same,dopaminergic neuron differentiation score,ReNCell VM [2]; library: Tocriscreen,inactive: 0
C[C@H](Cc1ccc2c(c1)OC(C(=O)O)(C(=O)O)O2)NC[C@H](O)c1cccc(Cl)c1,neuronal differentiation score,ReNCell VM [1]; library: LOPAC,inactive: 0
same,dopaminergic neuron differentiation score,ReNCell VM [2]; library: LOPAC,inactive: 0
CCN(CC)C(=O)NC1CC2c3cccc4[nH]cc(c34)CC2N(C)C1 (stereo not drawn) [R(+)-Terguride],neuronal differentiation score,ReNCell VM [1]; library: LOPAC,inactive: 0
same,dopaminergic neuron differentiation score,ReNCell VM [2]; library: LOPAC,active: 3
N#Cc1c(Cl)c(Cl)c(Cl)c(C#N)c1Cl,neuronal differentiation score,ReNCell VM [1]; library: Spectrum,inactive: 0
same,dopaminergic neuron differentiation score,ReNCell VM [2]; library: Spectrum,inactive: 0
Clc1cc(I)cc(Cl)c1NC1=NCCN1 [p-Iodoclonidine hydrochloride],neuronal differentiation score,ReNCell VM [1]; library: LOPAC,inactive: 0
same,dopaminergic neuron differentiation score,ReNCell VM [2]; library: LOPAC,inactive: 0
CCCCCCC[n+]1ccc(-c2cc[n+](CCCCCCC)cc2)cc1 [DHBP dibromide],neuronal differentiation score,ReNCell VM [1]; library: Tocriscreen,inactive: 0
same,dopaminergic neuron differentiation score,ReNCell VM [2]; library: Tocriscreen,inactive: 0
COc1ccc2c(c1O)-c1c(OC)c(OC)cc3c1[C@H](C2)N(C)CC3 [Isocorydine (+)],neuronal differentiation score,ReNCell VM [1]; library: Phytochemical,inactive: 0
same,dopaminergic neuron differentiation score,ReNCell VM [2]; library: Phytochemical,inactive: 0
c1ccc2nc(N3CCNCC3)ccc2c1,neuronal differentiation score,ReNCell VM [1]; library: Spectrum,inactive: 0
same,dopaminergic neuron differentiation score,ReNCell VM [2]; library: Spectrum,inactive: 0
N=C(N)NN,neuronal differentiation score,ReNCell VM [1]; library: Spectrum,inactive: 0
same,dopaminergic neuron differentiation score,ReNCell VM [2]; library: Spectrum,inactive: 0
CC1=CC(=O)C2=C(C)C[C@H](O)[C@@H]3[C@H](OC(=O)[C@H]3C)[C@H]12 [Austricine hydrate],neuronal differentiation score,ReNCell VM [1]; library: Phytochemical,inactive: 0
same,dopaminergic neuron differentiation score,ReNCell VM [2]; library: Phytochemical,inactive: 0
Cc1cccc(C)c1NC1=NCCCS1,neuronal differentiation score,ReNCell VM [1]; library: Spectrum,inactive: 0
same,dopaminergic neuron differentiation score,ReNCell VM [2]; library: Spectrum,inactive: 0
CC(C)NP(=O)(NC(C)C)OP(=O)(NC(C)C)NC(C)C [Tetraisopropyl pyrophosphoramide],neuronal differentiation score,ReNCell VM [1]; library: LOPAC,inactive: 0
same,dopaminergic neuron differentiation score,ReNCell VM [2]; library: LOPAC,inactive: 0
CCOc1cncc(/C=C/CCNC)c1 [TC 2559 difumarate],neuronal differentiation score,ReNCell VM [1]; library: Tocriscreen,inactive: 0
same,dopaminergic neuron differentiation score,ReNCell VM [2]; library: Tocriscreen,inactive: 0
CC(Cc1ccc(O)cc1)NCC(O)c1cc(O)cc(O)c1 (stereo unspecified),neuronal differentiation score,ReNCell VM [1]; library: Spectrum,inactive: 0
same,dopaminergic neuron differentiation score,ReNCell VM [2]; library: Spectrum,inactive: 0
CCN1C[C@]2(C)CC[C@H](OC)C34C5C[C@@H]6CC[C@@](O)(C5C(=O)O6)C(C13)[C@@H](OC(=O)c1ccccc1)[C@@H]42 [6-benzoylheteratisine],neuronal differentiation score,ReNCell VM [1]; library: Natural,inactive: 0
same,dopaminergic neuron differentiation score,ReNCell VM [2]; library: Natural,inactive: 0
O=c1ccc2cc(O[C@@H]3O[C@H](CO)[C@@H](O)[C@H](O)[C@H]3O)c(O)cc2o1 [Esculin Hydrate],neuronal differentiation score,ReNCell VM [1]; library: Phytochemical,inactive: 0
same,dopaminergic neuron differentiation score,ReNCell VM [2]; library: Phytochemical,inactive: 0
COc1ccc(C[C@H]2NC[C@H](O)[C@H]2OC(C)=O)cc1,neuronal differentiation score,ReNCell VM [1]; library: Spectrum,inactive: 0
same,dopaminergic neuron differentiation score,ReNCell VM [2]; library: Spectrum,inactive: 0
C=C1[C@H]2C[C@@]3([C@@H]1O)[C@@H](C[C@@H]2O)[C@]12[C@@H]4C[C@H]3[C@H]1N(CC)C[C@]4(C)CC[C@@H]2O [Napelline],neuronal differentiation score,ReNCell VM [1]; library: Phytochemical,active: 2
same,dopaminergic neuron differentiation score,ReNCell VM [2]; library: Phytochemical,inactive: 0
"CC(=O)[C@H]1CC[C@H]2[C@@H]3CC[C@H]4C[C@H](O)CC[C@]4(C)[C@H]3C(=O)C[C@]12C [5alpha-Pregnan-3alpha-ol-11,20-dione]",neuronal differentiation score,ReNCell VM [1]; library: LOPAC,inactive: 0
same,dopaminergic neuron differentiation score,ReNCell VM [2]; library: LOPAC,inactive: 0
NC(=S)N/N=C/c1coc2ccccc2c1=O.[Cl][Cu][Cl],neuronal differentiation score,ReNCell VM [1]; library: Tocriscreen,inactive: 0
same,dopaminergic neuron differentiation score,ReNCell VM [2]; library: Tocriscreen,inactive: 0
O=C(O)Cc1cnc[nH]1,neuronal differentiation score,ReNCell VM [1]; library: Spectrum,inactive: 0
same,dopaminergic neuron differentiation score,ReNCell VM [2]; library: Spectrum,inactive: 0
C=CCN(C1=NCCN1)c1c(Cl)cccc1Cl [Alinidine],neuronal differentiation score,ReNCell VM [1]; library: LOPAC,inactive: 0
same,dopaminergic neuron differentiation score,ReNCell VM [2]; library: LOPAC,inactive: 0
Oc1noc2c1CCNC2,neuronal differentiation score,ReNCell VM [1]; library: Spectrum,inactive: 0
same,dopaminergic neuron differentiation score,ReNCell VM [2]; library: Spectrum,inactive: 0
N[C@@H](Cn1oc(=O)[nH]c1=O)C(=O)O [L-Quisqualic acid],neuronal differentiation score,ReNCell VM [1]; library: Tocriscreen,inactive: 0
same,dopaminergic neuron differentiation score,ReNCell VM [2]; library: Tocriscreen,inactive: 0
O=[N+]([O-])c1cc([As](=O)(O)O)ccc1O [Roxarsone],neuronal differentiation score,ReNCell VM [1]; library: Prestwick,inactive: 0
same,dopaminergic neuron differentiation score,ReNCell VM [2]; library: Prestwick,inactive: 0
COc1cc2c(cc1OC)C(C)NCC2 (stereo unspecified),neuronal differentiation score,ReNCell VM [1]; library: Prestwick,inactive: 0
same,dopaminergic neuron differentiation score,ReNCell VM [2]; library: Prestwick,inactive: 0
Cc1nc(-c2ccc(-c3ccc(C(=O)N4CCc5cc6c(cc54)C4(CCN(C)CC4)CO6)cc3)c(C)c2)no1,neuronal differentiation score,ReNCell VM [1]; library: LOPAC,inactive: 0
same,dopaminergic neuron differentiation score,ReNCell VM [2]; library: LOPAC,inactive: 0
C[C@]12CC[C@H]3[C@@H](CCC4=CC(=O)CC[C@@]43C)[C@@H]1CC[C@@H]2O,neuronal differentiation score,ReNCell VM [1]; library: Spectrum,inactive: 0
same,dopaminergic neuron differentiation score,ReNCell VM [2]; library: Spectrum,inactive: 0
CN1C[C@H](C(=O)N[C@]2(C)O[C@@]3(O)[C@@H]4CCCN4C(=O)[C@H](Cc4ccccc4)N3C2=O)C[C@@H]2c3cccc4[nH]cc(c34)C[C@H]21 [Dihydroergotamine methanesulfonate],neuronal differentiation score,ReNCell VM [1]; library: LOPAC,inactive: 0
same,dopaminergic neuron differentiation score,ReNCell VM [2]; library: LOPAC,inactive: 0
c1cc(Cc2cnc[nH]2)ccn1 [Immethridine dihydrobromide],neuronal differentiation score,ReNCell VM [1]; library: Tocriscreen,inactive: 0
same,dopaminergic neuron differentiation score,ReNCell VM [2]; library: Tocriscreen,inactive: 0
O=C(O)/C=C/CO [trans-4-Hydroxycrotonic acid],neuronal differentiation score,ReNCell VM [1]; library: Tocriscreen,inactive: 0
same,dopaminergic neuron differentiation score,ReNCell VM [2]; library: Tocriscreen,inactive: 0
Cc1ccc(S(=O)(=O)N[C@@H](CCCCN)C(=O)CCl)cc1 [Na-p-Tosyl-L-lysine chloromethyl ketone hydrochloride],neuronal differentiation score,ReNCell VM [1]; library: LOPAC,inactive: 0
same,dopaminergic neuron differentiation score,ReNCell VM [2]; library: LOPAC,inactive: 1
NC(=O)C[S+]([O-])C(c1ccccc1)c1ccccc1 (stereo unspecified),neuronal differentiation score,ReNCell VM [1]; library: Spectrum,inactive: 0
same,dopaminergic neuron differentiation score,ReNCell VM [2]; library: Spectrum,inactive: 0
O=C1CC[C@@]2(O)[C@H]3Cc4ccc(O)c5c4[C@@]2(CCN3CC2CC2)[C@H]1O5,neuronal differentiation score,ReNCell VM [1]; library: Spectrum,inactive: 0
same,dopaminergic neuron differentiation score,ReNCell VM [2]; library: Spectrum,inactive: 0

# Part of the list above, set out differently:
structure (smiles)	measurement	setting	value
N[C@@H](Cn1ccc(=O)[nH]c1=O)C(=O)O [S(-)-Willardiine]	neuronal differentiation score	ReNCell VM [1]; library: LOPAC	inactive: 0
CC(CCc1ccccc1)NC(C)C(O)c1ccc(O)cc1 (stereo unspecified) [Nylidrin hydrochloride]	dopaminergic neuron differentiation score	ReNCell VM [2]; library: LOPAC	inactive: 0
